Drawing on article PMC9452783, this text covers binding for 4 molecules.

Sequences of proteins named here, by UniProt entry; tags and fusion partners are left off. A change or cut given only in a name is not applied to a line headed by its entry. Residues count along the entry.
UniProt P53350: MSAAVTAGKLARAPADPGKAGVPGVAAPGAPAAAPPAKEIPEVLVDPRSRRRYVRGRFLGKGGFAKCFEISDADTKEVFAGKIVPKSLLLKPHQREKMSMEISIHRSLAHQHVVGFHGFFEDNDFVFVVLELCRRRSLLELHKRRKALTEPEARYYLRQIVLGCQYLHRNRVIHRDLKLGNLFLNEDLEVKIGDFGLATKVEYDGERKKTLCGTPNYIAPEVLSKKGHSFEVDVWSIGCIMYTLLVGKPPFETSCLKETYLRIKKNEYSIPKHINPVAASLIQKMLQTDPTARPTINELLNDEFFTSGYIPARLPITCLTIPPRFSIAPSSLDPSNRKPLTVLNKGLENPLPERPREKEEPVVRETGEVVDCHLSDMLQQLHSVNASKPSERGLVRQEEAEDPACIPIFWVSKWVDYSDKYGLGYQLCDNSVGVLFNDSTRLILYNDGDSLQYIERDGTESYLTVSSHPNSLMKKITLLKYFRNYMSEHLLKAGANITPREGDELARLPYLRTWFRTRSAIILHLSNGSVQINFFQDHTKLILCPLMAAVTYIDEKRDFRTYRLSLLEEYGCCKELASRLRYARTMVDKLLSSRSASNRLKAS
Flag-PLK1 330-603 (polo-box domain): residues 330-603 of P53350

The target in assay [1] is T1, GST-ZNF830 (expressed in 293T cells) (UniProt Q96NB3).
T1 sequence: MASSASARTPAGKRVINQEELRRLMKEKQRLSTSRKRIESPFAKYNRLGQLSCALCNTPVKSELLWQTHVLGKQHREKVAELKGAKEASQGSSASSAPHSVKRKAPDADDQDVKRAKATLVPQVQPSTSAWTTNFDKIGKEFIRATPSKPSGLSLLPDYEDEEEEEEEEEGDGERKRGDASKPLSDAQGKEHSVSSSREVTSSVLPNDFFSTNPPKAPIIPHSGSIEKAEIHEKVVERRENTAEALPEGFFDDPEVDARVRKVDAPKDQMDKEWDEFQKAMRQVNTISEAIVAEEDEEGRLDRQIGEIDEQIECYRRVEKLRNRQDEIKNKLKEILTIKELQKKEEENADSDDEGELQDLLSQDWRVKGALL
In words: co-IP; GST-ZNF830 and Flag-PPIL2 constructs expressed in 293T cells; IP and western blot, IP antibody not stated.

Another assay has as its target Flag-CtIP (human) (UniProt Q99708). In words: co-IP; 293T cells cotransfected with Flag- and His-tagged constructs; IP with anti-Flag ("indicated antibodies" for Figures 5A, 7C, 7D), western blot with anti-His and anti-Flag; some panels with or without 2 μM CPT for 1 h, or with MG132 (20 μM, 3 h) and NETN lysis. Background: A western blot detects proteins with antibodies after separation by electrophoresis.

The target of assay [2] is T2, Flag-CtIP 200-460 (human) (UniProt Q99708).
T2 sequence: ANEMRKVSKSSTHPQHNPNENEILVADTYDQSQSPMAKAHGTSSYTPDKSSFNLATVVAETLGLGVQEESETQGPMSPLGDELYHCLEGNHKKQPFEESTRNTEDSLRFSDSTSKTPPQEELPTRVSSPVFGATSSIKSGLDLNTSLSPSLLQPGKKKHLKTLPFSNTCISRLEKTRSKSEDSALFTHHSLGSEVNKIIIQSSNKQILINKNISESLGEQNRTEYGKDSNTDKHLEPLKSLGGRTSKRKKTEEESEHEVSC
Described as above.

For assay [3], the target named is T3, Flag-CtIP 460-897 (human) (UniProt Q99708).
T3 sequence: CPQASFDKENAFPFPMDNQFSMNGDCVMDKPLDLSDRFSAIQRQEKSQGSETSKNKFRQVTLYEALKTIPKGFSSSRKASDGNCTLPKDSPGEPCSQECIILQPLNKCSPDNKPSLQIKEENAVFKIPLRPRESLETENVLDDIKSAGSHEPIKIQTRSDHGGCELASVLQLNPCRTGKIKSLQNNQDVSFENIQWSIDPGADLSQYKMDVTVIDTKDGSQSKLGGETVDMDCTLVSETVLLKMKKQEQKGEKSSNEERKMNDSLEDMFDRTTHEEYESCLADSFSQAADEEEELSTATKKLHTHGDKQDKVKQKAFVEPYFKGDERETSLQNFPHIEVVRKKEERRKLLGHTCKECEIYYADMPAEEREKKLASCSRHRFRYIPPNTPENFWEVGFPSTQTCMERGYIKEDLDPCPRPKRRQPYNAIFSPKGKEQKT
The assay is described as above.

Assay [4] addresses T4, ZNF830 (endogenous, U2OS) (human (endogenous in U2OS)) (UniProt Q96NB3).
T4 sequence: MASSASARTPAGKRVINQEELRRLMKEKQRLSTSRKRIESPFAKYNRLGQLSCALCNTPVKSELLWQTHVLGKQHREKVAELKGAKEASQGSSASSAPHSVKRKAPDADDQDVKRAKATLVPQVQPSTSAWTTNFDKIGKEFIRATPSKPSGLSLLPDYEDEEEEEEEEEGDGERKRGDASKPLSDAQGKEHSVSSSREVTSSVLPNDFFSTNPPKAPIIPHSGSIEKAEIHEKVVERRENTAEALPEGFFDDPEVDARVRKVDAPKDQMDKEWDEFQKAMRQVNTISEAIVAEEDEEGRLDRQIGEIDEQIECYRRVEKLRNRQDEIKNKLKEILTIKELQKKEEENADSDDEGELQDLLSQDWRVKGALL
In words: co-IP; endogenous proteins, U2OS lysate; IP with anti-ZNF830 antibody, western blot with anti-PPIL2 or anti-ZNF830.

In assay [5] the target is CtIP (endogenous, U2OS) (human (endogenous in U2OS)) (UniProt Q99708). In words: co-IP; endogenous proteins, U2OS lysate; IP with anti-CtIP antibody, western blot with anti-CtIP and anti-PPIL2; also after 2 μM CPT for 1 h.
A further assay deals with Flag-PLK1 (UniProt P53350). In words: co-IP; 293T cells cotransfected with Flag- and His-tagged constructs; IP with anti-Flag ("indicated antibodies" for Figures 5A, 7C, 7D), western blot with anti-His and anti-Flag; some panels with or without 2 μM CPT for 1 h, or with MG132 (20 μM, 3 h) and NETN lysis.
Assay [6] addresses Flag-PLK1 330-603 (polo-box domain) (UniProt P53350). The assay is described as above.

Results are given in words; binding and its absence hold for the method and conditions named. In cells and extracts the contact can be indirect. Some entries that bind do so weakly or less than the wild type. For part of these data: Tags and fused reporters may be left off the sequences shown.

B1: Flag-PPIL2 241-520 (domain or fragment, UniProt Q13356 241-520)
chain: YSTGKVSASFTSTAMVPETTHEAAAIDEDVLRYQFVKKKGYVRLHTNKGDLNLELHCDLTPKTCENFIRLCKKHYYDGTIFHRSIRNFVIQGGDPTGTGTGGESYWGKPFKDEFRPNLSHTGRGILSMANSGPNSNRSQFFITFRSCAYLDKKHTIFGRVVGGFDVLTAMENVESDPKTDRPKEEIRIDATTVFVDPYEEADAQIAQERKTQLKVAPETKVKSSQPQAGSQGPQTFRQGVGKYINPAATKRAAEEEPSTSATVPMSKKKPSRGFGDFSSW
On to B1, for which, in assay [1], the binding entry is “binds”.

B2: His-PPIL2 241-520 (expressed in 293T cells) (domain or fragment, UniProt Q13356 241-520)
chain: YSTGKVSASFTSTAMVPETTHEAAAIDEDVLRYQFVKKKGYVRLHTNKGDLNLELHCDLTPKTCENFIRLCKKHYYDGTIFHRSIRNFVIQGGDPTGTGTGGESYWGKPFKDEFRPNLSHTGRGILSMANSGPNSNRSQFFITFRSCAYLDKKHTIFGRVVGGFDVLTAMENVESDPKTDRPKEEIRIDATTVFVDPYEEADAQIAQERKTQLKVAPETKVKSSQPQAGSQGPQTFRQGVGKYINPAATKRAAEEEPSTSATVPMSKKKPSRGFGDFSSW
On to B2, for which the binding entry (in the assay with Flag-CtIP (human); in assay [2]; in assay [3]) was “binds” throughout.

B3: PPIL2 (endogenous, U2OS) (protein, UniProt Q13356 1-520)
chain: MGKRQHQKDKMYITCAEYTHFYGGKKPDLPQTNFRRLPFDHCSLSLQPFVYPVCTPDGIVFDLLNIVPWLKKYGTNPSNGEKLDGRSLIKLNFSKNSEGKYHCPVLFTVFTNNTHIVAVRTTGNVYAYEAVEQLNIKAKNFRDLLTDEPFSRQDIITLQDPTNLDKFNVSNFYHVKNNMKIIDPDEEKAKQDPSYYLKNTNAETRETLQELYKEFKGDEILAATMKAPEKKKVDKLNAAHYSTGKVSASFTSTAMVPETTHEAAAIDEDVLRYQFVKKKGYVRLHTNKGDLNLELHCDLTPKTCENFIRLCKKHYYDGTIFHRSIRNFVIQGGDPTGTGTGGESYWGKPFKDEFRPNLSHTGRGILSMANSGPNSNRSQFFITFRSCAYLDKKHTIFGRVVGGFDVLTAMENVESDPKTDRPKEEIRIDATTVFVDPYEEADAQIAQERKTQLKVAPETKVKSSQPQAGSQGPQTFRQGVGKYINPAATKRAAEEEPSTSATVPMSKKKPSRGFGDFSSW
As for B3, the binding entry in assay [4] and in assay [5] was “binds” each time.

B4: His-PPIL2 (full length, expressed in 293T cells) (protein, UniProt Q13356 1-520)
chain: MGKRQHQKDKMYITCAEYTHFYGGKKPDLPQTNFRRLPFDHCSLSLQPFVYPVCTPDGIVFDLLNIVPWLKKYGTNPSNGEKLDGRSLIKLNFSKNSEGKYHCPVLFTVFTNNTHIVAVRTTGNVYAYEAVEQLNIKAKNFRDLLTDEPFSRQDIITLQDPTNLDKFNVSNFYHVKNNMKIIDPDEEKAKQDPSYYLKNTNAETRETLQELYKEFKGDEILAATMKAPEKKKVDKLNAAHYSTGKVSASFTSTAMVPETTHEAAAIDEDVLRYQFVKKKGYVRLHTNKGDLNLELHCDLTPKTCENFIRLCKKHYYDGTIFHRSIRNFVIQGGDPTGTGTGGESYWGKPFKDEFRPNLSHTGRGILSMANSGPNSNRSQFFITFRSCAYLDKKHTIFGRVVGGFDVLTAMENVESDPKTDRPKEEIRIDATTVFVDPYEEADAQIAQERKTQLKVAPETKVKSSQPQAGSQGPQTFRQGVGKYINPAATKRAAEEEPSTSATVPMSKKKPSRGFGDFSSW
As for B4, the binding entry (with Flag-CtIP (human); with Flag-PLK1; in assay [6]) was “binds” in each case.
